Assay results from US6492515B2, “4,4-disubstituted-1, 4-dihydro-2H-3, 1-benzoxazin-2-ones useful as HIV reverse transcriptase inhibitors and intermediates and processes for making the same” (Bristol-Myers Squibb Pharma Company, priority 1996, dated 2002).
Values after ≈ are worked out from the molar mass of the structure shown.

System: HIV-1 (RF)
Experiment: HIV RNA assay: microplate based compound evaluation in HIV-1 infected MT-2 cells
Assay type: cell-based
Conditions: Human immunodeficiency virus 1, MT2, 72 h; HIV-1 (RF) infected MT-2 cells, 3 days; virus dilutions selected to give this value; read-out: IC90 value (concentration of compound required to reduce the HIV RNA level by 90%)
Description: DNA Plasmids and in vitro RNA Transcripts
Plasmid pDAB 72 containing both gag and pol sequences of BH10 (bp 113-1816) cloned into PTZ 19R was prepared according to Erickson-Viitanen et al. AIDS Research and Human Retroviruses 1989, 5, 577. The plasmid was linearized with Bam HI prior to the generation of in vitro RNA transcripts using the Riboprobe Gemini system II kit (Promega) with T7 RNA polymerase. Synthesized RNA was purified by treatment with RNase free DNAse (Promega), phenol-chloroform extraction, and ethanol precipitation. RNA transcripts were dissolved in water, and stored at −70° C. The concentration of RNA was determined from the A260.
Biotinylated capture probes were purified by HPLC after synthesis on an Applied Biosystems (Foster City, Calif.) DNA synthesizer by addition of biotin to the 5′ terminal end of the oligonucleotide, using the biotin-phosphoramidite reagent of Cocuzza, Tet. Lett. 1989, 30, 6287. […]
MT-2 and MT-4 cells were maintained in RPMI 1640 supplemented with 5% fetal calf serum (FCS) for MT-2 cells or 10% FCS for MT-4 cells, 2 mM L-glutamine and 50 μg/mL gentamycin, all from Gibco. […] Infectious titers of HIV-1 (RF) stocks were 1-3×10^7 PFU (plaque forming units)/mL as measured by plaque assay on MT-2 cells (see below). […]

IC90: 0.2 µg/mL (≈ 0.947 µM)
SMILES: Nc1ccn([C@H]2CC[C@@H](CO)O2)c(=O)n1 [ddC, 2′,3′-dideoxycytidine]
